In patent US20110046217A1, “USE OF 2,2'-CYCLOLIGNANS FOR INDUCING, RESTORING OR STIMULATING THE PIGMENTATION OF THE SKIN, HAIR OR HAIRS” (priority 2007, published 2011):

Tested on: B16 melanocytes
Assay: Amount of proteins (Bradford method) in B16 melanocyte cultures
Assay type: cell-based
Conditions: for Total proteins: Table 4; for Proteins: Table 2, plate 1

COc1cc2c(c(OC)c1OC)-c1c(cc3c(c1OC)OCO3)C[C@H](C)[C@](C)(O)[C@H]2OC(=O)c1ccccc1 [Gomisin C, gomisin C]
Total proteins (0.4 μg/ml): 1.220 mg/mL
Total proteins (2 μg/ml): 1.294 mg/mL
Total proteins (8 μg/ml): 1.299 mg/mL

CC(C)Cn1c(=O)n(C)c(=O)c2[nH]cnc21 [IBMX, reference compound]
Proteins (200 μM): 0.917 mg/mL
Total proteins (8 μM): 1.292 mg/mL
Total proteins (40 μM): 1.338 mg/mL
Total proteins (200 μM): 1.428 mg/mL

COc1cc2c(c(OC)c1OC)-c1c(cc3c(c1OC)OCO3)C[C@H](C)[C@](C)(O)C2 [Gomisin A, gomisin A]
Proteins (0.0022 mg/ml): 1.003 mg/mL
Proteins (0.0067 mg/ml): 1.000 mg/mL
Proteins (0.02 mg/ml): 0.992 mg/mL
